“Also recorded” adds a separate entry of the source. At least one structure is not confirmed: it was looked up by name or label, or the drawing left a doubt.
System: NIH3T3
Test: Cytoskeleton analysis, actin staining
Assay type: cell-based, mouse
Procedure: Since major rearrangements of cytoskeleton are observed in tumor cells and since the small GTPases are known to regulate these events, analysis of actin cytoskeleton was performed. Subconfluent cells seeded onto coverslips were treated with different concentration of compound (1, 10, 17.5, 25 and 50 μM) or vehicle for 24 h, before being fixed in 4% formaldehyde for 15 min., permeabilized in 0.2% Triton X100 for 5 minutes and incubated in PowerBlock (Biogenex) for 10 min. Actin filaments were stained with 0.5 μg/ml fluorescein isothiocyanate (FITC)-labelled phalloidin for 1 hour. Analysis was performed using an inverted fluorescent microscope.

SMILES: O=c1cc(CO)occ1OCCCCCOc1ccc(Cl)cc1 [EH15500, 5-[5-(4-Chlorophenyloxy)pentyloxy]-2-(hydroxymethyl)-4H-pyran-4-one]
- Cell architecture modification, actin staining NIH3T3, general observation: affected the general morphology; also recorded: cell destructuration

From US6552073B1, “Compounds and methods of treating cell proliferative diseases” (Exonhit Therapeutics SA, priority 2002, dated 2003)
